Results published in the supplement of paper PMC4604168 (melanoma cell lines).
This is one part of the list. Single values are uncertain, as repeats are few or missing.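 The apoptosis fraction was the count of cleaved-PARP antibody-stained nuclei relative to all DNA-stained nuclei, imaged in 1,536-well plates. Screening doses were set so most cells survived, and baseline and induced cleaved-PARP levels vary greatly across cell lines.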

system: CBRC017 (line from a melanoma biopsy); assay: cleaved PARP positive nuclei fraction relative to DMSO control; melanoma cells; higher = more apoptosis; conditions: library dose: low library concentration; 72 h

| SMILES | cleaved PARP positive nuclei fraction [%] |
| --- | --- |
| O=c1[nH]nc(Sc2ncc([N+](=O)[O-])s2)n1-c1ccc2c(c1)OCCO2 + N.N.[Cl][Pt][Cl] [cisplatin] (first compound 0.2 µM, partner dose 1.6 µM) | 132 |
| N.N.[Cl][Pt][Cl] [cisplatin] + C=C(c1ccc(C(=O)O)cc1)c1cc2c(cc1C)C(C)(C)CCC2(C)C [Bexarotene] (first compound 1.6 µM, partner dose 2 µM) | 147 |
| C=C(c1ccc(C(=O)O)cc1)c1cc2c(cc1C)C(C)(C)CCC2(C)C [Bexarotene] + C[As](C)SC[C@H](NC(=O)CC[C@H](N)C(=O)O)C(=O)NCC(=O)O [Darinaparsin] (first compound 2 µM, partner dose 0.4 µM) | 110 |
| Cc1cc(Nc2cc(N3CCN(C)CC3)nc(Sc3ccc(NC(=O)C4CC4)cc3)n2)n[nH]1 [Tozasertib] + Cn1cc(C2=C(c3cn(C4CCN(Cc5ccccn5)CC4)c4ccccc34)C(=O)NC2=O)c2ccccc21 [Enzastaurin] (first compound 0.006 µM, partner dose 0.8 µM) | 90.2 |
| CCN(CC)CCNC(=O)c1c(C)[nH]c(/C=C2\C(=O)Nc3ccc(F)cc32)c1C [sunitinib] + N.N.[Cl][Pt][Cl] [cisplatin] (first compound 0.4 µM, partner dose 1.6 µM) | 113 |
| Cn1cc(C2=C(c3cn(C4CCN(Cc5ccccn5)CC4)c4ccccc34)C(=O)NC2=O)c2ccccc21 [Enzastaurin] + OCc1c[nH]c2ccccc12 [Indole-3-carbinol] (first compound 0.8 µM, partner dose 0.8 µM) | 119 |
| C[As](C)SC[C@H](NC(=O)CC[C@H](N)C(=O)O)C(=O)NCC(=O)O [Darinaparsin] + Nc1cccc2c1CN(C1CCC(=O)NC1=O)C2=O [lenalidomide] (first compound 0.4 µM, partner dose 1 µM) | 90 |
| C[C@]12O[C@H](C[C@]1(O)CO)n1c3ccccc3c3c4c(c5c6ccccc6n2c5c31)CNC4=O [Lestaurtinib] + Clc1ccc(Nc2nnc(Cc3ccncc3)c3ccccc23)cc1 [vatalanib] (first compound 0.004 µM, partner dose 2 µM) | 93.3 |
| Cn1cc(C2=C(c3cn(C4CCN(Cc5ccccn5)CC4)c4ccccc34)C(=O)NC2=O)c2ccccc21 [Enzastaurin] + O=C(O)c1ccc2c(c1)nc(Nc1cccc(Cl)c1)c1ccncc12 [CX4945] (first compound 0.8 µM, partner dose 0.4 µM) | 87.1 |
| C[C@]12O[C@H](C[C@]1(O)CO)n1c3ccccc3c3c4c(c5c6ccccc6n2c5c31)CNC4=O [Lestaurtinib] + Nc1ncn([C@H]2C[C@H](O)[C@@H](CO)O2)c(=O)n1 [decitabine] (first compound 0.004 µM, partner dose 0.1 µM) | 177 |
| Cn1cc(C2=C(c3cn(C4CCN(Cc5ccccn5)CC4)c4ccccc34)C(=O)NC2=O)c2ccccc21 [Enzastaurin] + C[C@]1(c2nc3c(C(N)=O)cccc3[nH]2)CCCN1 [Veliparib] (first compound 0.8 µM, partner dose 1.4 µM) | 93.1 |
| Cc1ccc(Nc2nccc(N(C)c3ccc4c(C)n(C)nc4c3)n2)cc1S(N)(=O)=O [Pazopanib] + N.N.[Cl][Pt][Cl] [cisplatin] (first compound 0.4 µM, partner dose 1.6 µM) | 84.8 |
| C[As](C)SC[C@H](NC(=O)CC[C@H](N)C(=O)O)C(=O)NCC(=O)O [Darinaparsin] + Cn1c(Nc2ccc(C(F)(F)F)cc2)nc2cc(Oc3ccnc(-c4ncc(C(F)(F)F)[nH]4)c3)ccc21 [CHIR265] (first compound 0.4 µM, partner dose 0.08 µM) | 254 |
| CC[C@]1(O)C[C@H]2CN(CCc3c([nH]c4ccccc34)[C@@](C(=O)OC)(c3cc4c(cc3OC)N(C=O)[C@H]3[C@@](O)(C(=O)OC)[C@H](OC(C)=O)[C@]5(CC)C=CCN6CC[C@]43[C@@H]65)C2)C1 [vincristine] + N.N.[Cl][Pt][Cl] [cisplatin] (first compound 0.0001 µM, partner dose 1.6 µM) | 152 |
| O=C(/C=C/c1cccnc1)NCCCCC1CCN(C(=O)c2ccccc2)CC1 + N.N.[Cl][Pt][Cl] [cisplatin] (first compound 0.01 µM, partner dose 1.6 µM) | 1040 |
| Nc1ncn([C@H]2C[C@H](O)[C@@H](CO)O2)c(=O)n1 [decitabine] + C[As](C)SC[C@H](NC(=O)CC[C@H](N)C(=O)O)C(=O)NCC(=O)O [Darinaparsin] (first compound 0.1 µM, partner dose 0.4 µM) | 106 |
| C#Cc1cccc(Nc2ncnc3cc(OCCOC)c(OCCOC)cc23)c1 [erlotinib] + C[As](C)SC[C@H](NC(=O)CC[C@H](N)C(=O)O)C(=O)NCC(=O)O [Darinaparsin] (first compound 0.8 µM, partner dose 0.4 µM) | 112 |
| Cn1cc(C2=C(c3cn(C4CCN(Cc5ccccn5)CC4)c4ccccc34)C(=O)NC2=O)c2ccccc21 [Enzastaurin] + CC(=O)c1c(C)c2cnc(Nc3ccc(N4CCNCC4)cn3)nc2n(C2CCCC2)c1=O [palbociclib] (first compound 0.8 µM, partner dose 0.04 µM) | 121 |
| N.N.[Cl][Pt][Cl] [cisplatin] + O=C(O)[C@@H]1[O][Sb](=[O])([O][Sb]2(=[O])[O][C@H]([C@H](O)CO)[C@H](O)[C@H](C(=O)O)[O]2)[O][C@H]([C@H](O)CO)[C@@H]1O [stibogluconate] (first compound 1.6 µM, partner dose 2 µM) | 104 |
| Cc1cn(-c2cc(NC(=O)c3ccc(C)c(Nc4nccc(-c5cccnc5)n4)c3)cc(C(F)(F)F)c2)cn1 [nilotinib] + C[C@]12O[C@H](C[C@]1(O)CO)n1c3ccccc3c3c4c(c5c6ccccc6n2c5c31)CNC4=O [Lestaurtinib] (first compound 0.2 µM, partner dose 0.004 µM) | 104 |
| CO[C@H]1C[C@@H]2CC[C@@H](C)[C@@](O)(O2)C(=O)C(=O)N2CCCC[C@H]2C(=O)O[C@H]([C@H](C)C[C@@H]2CC[C@@H](OCCO)[C@H](OC)C2)CC(=O)[C@H](C)/C=C(\C)[C@@H](O)[C@@H](OC)C(=O)[C@H](C)C[C@H](C)/C=C/C=C/C=C/1C [everolimus] + C[As](C)SC[C@H](NC(=O)CC[C@H](N)C(=O)O)C(=O)NCC(=O)O [Darinaparsin] (first compound 0.02 µM, partner dose 0.4 µM) | 153 |
| Cn1cc(C2=C(c3cn(C4CCN(Cc5ccccn5)CC4)c4ccccc34)C(=O)NC2=O)c2ccccc21 [Enzastaurin] + C#Cc1cccc(Nc2ncnc3cc(OCCOC)c(OCCOC)cc23)c1 [erlotinib] (first compound 0.8 µM, partner dose 0.8 µM) | 115 |
| C[C@]12O[C@H](C[C@]1(O)CO)n1c3ccccc3c3c4c(c5c6ccccc6n2c5c31)CNC4=O [Lestaurtinib] + CC(=O)O[C@@]12CO[C@@H]1C[C@H](O)[C@@]1(C)C(=O)[C@H](O)C3=C(C)[C@@H](OC(=O)[C@H](O)[C@@H](NC(=O)OC(C)(C)C)c4ccccc4)C[C@@](O)([C@@H](OC(=O)c4ccccc4)[C@H]21)C3(C)C [Docetaxel] (first compound 0.004 µM, partner dose 0.0001 µM) | 182 |
| C[C@]12O[C@H](C[C@]1(O)CO)n1c3ccccc3c3c4c(c5c6ccccc6n2c5c31)CNC4=O [Lestaurtinib] + CS(=O)(=O)c1ccc(C(=O)Nc2ccc(Cl)c(-c3ccccn3)c2)c(Cl)c1 [vismodegib] (first compound 0.004 µM, partner dose 1 µM) | 83.8 |
| N.N.[Cl][Pt][Cl] [cisplatin] + C=CCNC1=C2C[C@@H](C)C[C@H](OC)[C@H](O)[C@@H](C)/C=C(\C)[C@H](OC(N)=O)[C@@H](OC)/C=C\C=C(/C)C(=O)NC(=CC1=O)C2=O [Tanespimycin] (first compound 1.6 µM, partner dose 0.002 µM) | 85.9 |
| O=C(/C=C/c1cccnc1)NCCCCC1CCN(C(=O)c2ccccc2)CC1 + C[C@]12O[C@H](C[C@]1(O)CO)n1c3ccccc3c3c4c(c5c6ccccc6n2c5c31)CNC4=O [Lestaurtinib] (first compound 0.01 µM, partner dose 0.004 µM) | 428 |
| N.N.[Cl][Pt][Cl] [cisplatin] + OCc1c[nH]c2ccccc12 [Indole-3-carbinol] (first compound 1.6 µM, partner dose 0.8 µM) | 134 |
| Cn1cc(C2=C(c3cn(C4CCN(Cc5ccccn5)CC4)c4ccccc34)C(=O)NC2=O)c2ccccc21 [Enzastaurin] + CO[C@H]1C[C@@H]2CC[C@@H](C)[C@@](O)(O2)C(=O)C(=O)N2CCCC[C@H]2C(=O)O[C@H]([C@H](C)C[C@@H]2CC[C@@H](OCCO)[C@H](OC)C2)CC(=O)[C@H](C)/C=C(\C)[C@@H](O)[C@@H](OC)C(=O)[C@H](C)C[C@H](C)/C=C/C=C/C=C/1C [everolimus] (first compound 0.8 µM, partner dose 0.02 µM) | 118 |

Quoted at random: 2 entries already listed.

| SMILES | cleaved PARP positive nuclei fraction [%] |
| --- | --- |
| Cn1cc(C2=C(c3cn(C4CCN(Cc5ccccn5)CC4)c4ccccc34)C(=O)NC2=O)c2ccccc21 [Enzastaurin] + C[C@]1(c2nc3c(C(N)=O)cccc3[nH]2)CCCN1 [Veliparib] (first compound 0.8 µM, partner dose 1.4 µM) | 93.1 |
| C[C@]12O[C@H](C[C@]1(O)CO)n1c3ccccc3c3c4c(c5c6ccccc6n2c5c31)CNC4=O [Lestaurtinib] + CS(=O)(=O)c1ccc(C(=O)Nc2ccc(Cl)c(-c3ccccn3)c2)c(Cl)c1 [vismodegib] (first compound 0.004 µM, partner dose 1 µM) | 83.8 |
